Reference: publication PMC12040169 (PLOS Biology, 2025)
This is one part of the list.

The molecules below were run on T1, CTL2-GFP (C. trachomatis L2/434/Bu, GFP-expressing). Conditions: bulk GFP, single well; 28.5 h, 10 µM; inhibitor.
T1 construct: L2/434/Bu, GFP-expressing
Set-up: species or system HeLa; Intracellular C. trachomatis growth in HeLa cells, bulk GFP fluorescence relative to DMSO

Compared with `Cc1ccc([C@@]2(O)CC[C@@H]3CN(S(=O)(=O)C(C)C)C[C@@H]32)cc1` [CBK285297], `O=C(O)C1CC(O)CN1S(=O)(=O)c1ccc(Cl)cc1` (stereo not drawn) [CBK266106] is lower in “% of control remaining” value: 119.679% for the first, 98.4764% for the second.

Compared with `Cc1ccccc1/N=C1/NC(=O)/C(=C/c2cccn2-c2ccc(S(N)(=O)=O)cc2)S1` [CBK265681], `Cc1ccccc1Cc1cccc(C2CCN(C(=O)c3ccc(F)cc3)CC2)n1` [CBK286140] is higher in “% of control remaining” value: 105.288% for the first, 111.131% for the second.

Compared with `NNC(=O)/C(=C\c1ccccc1)CCO` [CBK261215], `O=C(O)c1sccc1NS(=O)(=O)Cc1ccccc1` [CBK004561] is higher in “% of control remaining” value: 84.6768% for the first, 180.841% for the second.

Compared with `Cn1cnc(S(=O)(=O)Nc2cccc3cc[nH]c23)c1` [CBK159554], `COc1ccccc1NS(=O)(=O)c1cc(S(=O)(=O)Nc2ccccc2OC)c(C)cc1C` [CBK261493] is higher in “% of control remaining” value: 95.513% for the first, 112.119% for the second.

First: O=C(c1ccc(-c2ccc(OCC3CCN(c4ncccn4)CC3)cn2)cc1)N1CCOCC1 [CBK173183]
Second: O=C(Nc1ccc(N2CCOCC2)cc1)c1ccc(-n2cnnc2)cc1Cl [CBK269889]
The “% of control remaining” value of the first is higher: 125.335% for the first, 123.551% for the second.

Going from `O=C(CCn1cnc2ccccc21)N1CC[C@@H](c2ccccc2)[C@H](O)C1` [CBK283712] to `O=C1C2CCCN2S(=O)(=O)c2ccccc2N1Cc1ccccc1` (stereo not drawn) [CBK284018], the “% of control remaining” value rises from 97.5358% to 106.686%.

First: Cc1nn(C)c(N2CCN(C(=O)OC(C)(C)C)CC2)c1N [CBK034182]
Second: Cc1cc(C)nc(N2CCC(CC(=O)N(C)CC(C)c3ccccc3)CC2)n1 (stereo not drawn) [CBK286105]
The “% of control remaining” value of the first is lower: 6.084% for the first, 104.701% for the second.

Compared with `COc1ccccc1NC(=O)C1=C(C)NC(SCC(=O)Nc2ccc(C(=O)O)cc2)=C(C#N)C1c1cccs1` (stereo not drawn) [CBK296139], `O=C(CNC(=O)c1ccccc1Cl)Nc1ccc(Br)cc1C(=O)c1ccccc1` [CBK087691] is lower in “% of control remaining” value: 134.771% for the first, 100% for the second.

Going from `O=C(NCCCN1CCN(Cc2ccccc2)CC1)c1cn2cc(C(F)(F)F)cc(Cl)c2n1` [CBK074654] to `O=C(Nc1cccnc1N1CCNCC1)c1ccc(-c2cccc(C(F)(F)F)c2)o1` [CBK034119T], the “% of control remaining” value falls from 105.638% to 100%.

Going from `CC(C)Nc1cncc(OCCN2CCNCC2)n1` [CBK115601] to `COc1ccc(Nc2nc(Cl)nc(NCCN3CCOCC3)n2)cc1` [CBK027610], the “% of control remaining” value rises from 105.018% to 155.324%.

Going from `COC1C(O)C(CO)OC1n1ccc(NC(=O)c2ccccc2)nc1=O` (stereo not drawn) [CBK201212] to `N#Cc1ccc(C(=O)Nc2nnc(-c3ccccn3)o2)cc1` [CBK287428], the “% of control remaining” value rises from 114.131% to 136.494%.

Going from `Cc1ccc(CN(CCCN(C)C)Cc2nc(C)n3ccccc23)o1` [CBK282482] to `CCN(CC)CCN(Cc1ccc2c(c1)OCO2)C(=O)Nc1cccc(NC(C)=O)c1` [CBK159042], the “% of control remaining” value rises from 85.5991% to 100.323%.

First: CN(C)C(CNS(=O)(=O)c1ccc2[nH]c(=O)[nH]c(=O)c2c1)c1ccccc1Cl (stereo not drawn) [CBK286385]
Second: COc1ccc(Cc2nc(-c3ccccc3)c3ccccc3n2)cc1F [CBK291176]
The “% of control remaining” value of the first is lower: 122.049% for the first, 138.8% for the second.

Going from `Nc1cc(N)nc(SCC(=O)Nc2nonc2N)n1` [CBK267522] to `CCSc1cc(Nc2nc(Cl)cc(SCC)n2)nc(N)n1` [CBK005164], the “% of control remaining” value falls from 144.433% to 113.624%.

Compared with `CC(=O)N1CC[C@H]2NC(=O)CNC(=O)C3(CCCC[C@H]2C1)CCN(C(=O)c1ccc(C)nc1)CC3` [CBK292172], `O=C(c1cc2c(s1)CCC2)N1CCc2c(nc[nH]c2=O)C1` [CBK283703] is lower in “% of control remaining” value: 169.445% for the first, 109.422% for the second.

First: CC1CN(C2(n3nnc4ccccc43)CCC(C(C)(C)C)CC2)CC(C)O1 (stereo not drawn) [CBK019373]
Second: Cc1nc(C2CCCN(C(=O)CCc3ccno3)C2)c2sccn12 (stereo not drawn) [CBK285237]
The “% of control remaining” value of the first is lower: 117.516% for the first, 137.026% for the second.

Going from `FC(F)(F)c1ccnc(OCc2ccc(-c3ccccc3)cc2)c1` [CBK115826] to `Cc1ccc(-c2nccnc2OCCn2cccc2)cc1C` [CBK106864], the “% of control remaining” value rises from 94.8918% to 104.508%.

First: COc1ccc(CSc2nnc(-c3ccncc3)n2C)cc1[N+](=O)[O-] [CBK269638]
Second: CC(=O)N1c2ccc(-c3cn4ccc(C)cc4n3)cc2CC1C (stereo not drawn) [CBK285191]
The “% of control remaining” value of the first is higher: 156.554% for the first, 92.0985% for the second.

Compared with `CCn1c(C(CC(C)C)NC(=O)c2ccco2)nc2cccnc21` (stereo not drawn) [CBK283523], `Cc1nc(-c2ccccc2)sc1CNC(=O)/C=C/c1c[nH]cn1` [CBK092368] is higher in “% of control remaining” value: 111.546% for the first, 138.964% for the second.

With `CC(C)c1nsc(NS(=O)(=O)c2cc(OCC(F)(F)F)ccc2OCC(F)(F)F)n1` [CBK051262] the “% of control remaining” value was 139.232%.
